In the supplement of paper PMC10398353 one finds normalized bacterial growth data, which are given here for 54 compounds.

The structures appear in SMILES notation. Counter-ions that a name gives are not always drawn. ± gives the standard deviation of the averaged measurements. The list shows a part of the results. The data scatter; read single values as rough.

The subject of the assay is Salmonella enterica serovar Typhimurium ST313 D23580. Briefly: normalized bacterial growth (OD600 20 h minus 0 h, interquartile-mean normalized) (fraction of plate interquartile mean); higher = more bacterial growth (less inhibition). The settings on record: LPM (pH 5.8, low phosphate, low Mg2+), concentration: 10 µM, temperature: 37 °C.
Turning to `O=C(O)CCCCCCCCCCCC[C@@H]1C=CCC1`, the normalized bacterial growth amounted to 1.04.
`COc1cc(OC)c2c(=O)c(O)c(-c3ccc(OC)c(OC)c3)oc2c1` came in with a normalized bacterial growth of 0.939.
`CNCc1ccccc1` showed a normalized bacterial growth of 1.05.
The figure for `N[C@@H](Cc1cc(I)c(Oc2cc(I)c(O)c(I)c2)c(I)c1)C(=O)O` is 0.787; for `Cc1cc(=O)oc2cc(O)c(O)cc12` it is 0.908; for `COc1cc(O)c(C(C)=O)c(O)c1` it is 1.19.
For the compound `O=C1Nc2ccccc2/C1=C1/Nc2ccccc2C1=O`, the normalized bacterial growth was 1.16.
`N=C(N)NC(=O)Cc1c(Cl)cccc1Cl` [Guanfacine hydrochloride]: the normalized bacterial growth came to 0.887.
The figure for `CN1C[C@H](O)[C@@H](O)[C@H](O)[C@H]1CO` [N-Methyl-1-deoxynojirimycin] is 1.09; for `OC(CN1CCC(Cc2ccc(F)cc2)CC1)c1ccc(Cl)cc1` (centres undefined) [Eliprodil] it is 0.85; for `COc1ccc([C@@H]2CC(=O)c3c(O)cc(O[C@@H]4O[C@H](CO[C@@H]5O[C@@H](C)[C@H](O)[C@@H](O)[C@H]5O)[C@@H](O)[C@H](O)[C@H]4O)cc3O2)cc1` it is 1.25.
As to `CN(C)CC/C=C1/c2ccccc2Sc2ccc(Cl)cc21` [Chlorprothixene hydrochloride], the normalized bacterial growth was 0.472.
For the compound `CN(C)CC/C=C1/c2ccccc2Sc2ccc(Cl)cc21`, the normalized bacterial growth worked out at 0.926.
In the case of `CC(=O)O[C@H]1C[C@@H](OC(C)=O)C(C)(C)[C@@H]2C[C@@H](OC(C)=O)[C@]3(C)[C@H](CC[C@@]4(C)[C@H](c5ccoc5)OC(=O)[C@H]5O[C@@]534)[C@@]12C`, the normalized bacterial growth came to 0.644.
On to `CN(C)CCOC(c1ccccc1)c1ccccc1` [Diphenhydramine hydrochloride], for which the normalized bacterial growth worked out at 0.81.
For `C=CCCCCCCCCCCCc1ccco1` the value was 1.14.
The figure for `COc1ccc(-c2coc3c(O)c(OC)ccc3c2=O)cc1` is 0.939; for `C[C@]12CC[C@@H]3c4ccc(O)cc4CC[C@H]3[C@@H]1CC[C@@H]2O` it is 1.08.
`C[C@]12CC[C@@H]3c4ccc(O)cc4CC[C@H]3[C@@H]1CC[C@@H]2O` [beta-Estradiol] gave a normalized bacterial growth of 0.913.
The figure for `CCCN(CCC)S(=O)(=O)c1ccc(C(=O)O)cc1` is 1.3.
The figure for `Cn1cc(NC(=O)c2cc(NC(=O)c3cc(NC=O)cn3C)cn2C)cc1C(=O)NCCC(=N)N` is 0.98; for `CCN(CC)C(=O)c1cccc(C)c1` it is 0.734.
In the case of `Cc1onc(-c2ccccc2)c1-c1ccc(S(N)(=O)=O)cc1`, the normalized bacterial growth was determined as 1.08.
The figure for `COc1ccc(CCN(C)CCCC(C#N)(c2ccc(OC)c(OC)c2)C(C)C)cc1OC` (centres undefined) [()-Verapamil hydrochloride] is 0.755; for `CCCc1cc(=O)[nH]c(=S)[nH]1` it is 0.738; for `CC1=C(CCC(=O)O)c2cc3[nH]c(cc4nc(cc5[nH]c(cc1n2)c(C)c5C(C)O)C(C)=C4C(C)O)c(C)c3CCC(=O)O` (centres undefined) it is 1.05.
`C[N+]1(CCCCC[N+]2(C)CCCC2)CCCC1` [Pentolinium di[L(+)-tartrate]]: the normalized bacterial growth is 0.963.
For `O=C(Nc1ccccc1)c1cc([N+](=O)[O-])ccc1Cl` the value was 1.17.
For `CO/N=C(\C(=O)N[C@@H]1C(=O)N2C(C(=O)OCOC(=O)C(C)(C)C)=C(/C=C\c3scnc3C)CS[C@H]12)c1csc(N)n1` the value was 0.735; for `CN(N=O)C(=O)N[C@H]1C(O)O[C@H](CO)[C@@H](O)[C@@H]1O` (mixture of isomers), 1.39; for `CC(=O)C1=C(O)C=C2Oc3c(C(C)=O)c(O)c(C)c(O)c3[C@@]2(C)C1=O`, 0.938.
The figure for `S=C(S)OC1CC2CC1C1CCCC21` [D-609 potassium] is 0.973; for `Oc1ncnc2[nH]ncc12` it is 1.04.
With `Oc1ncnc2[nH]ncc12` [Allopurinol], the normalized bacterial growth is 1.11.
For `O=[N+]([O-])c1ccc(-c2nc(-c3ccc(F)cc3)c(-c3ccncc3)[nH]2)cc1` the value was 0.745; for `CC1(C)C(=O)C=C[C@]2(C)[C@H]3CC[C@@]4(C)[C@H](c5ccoc5)OC(=O)[C@H]5O[C@]54[C@]3(C)C(=O)C[C@@H]12`, 1.14.
The figure for `CCCCCCC[N+](CC)(CC)CCCCc1ccc(Cl)cc1` [Clofilium tosylate] is 0.876.
For `CNCCCC1c2ccccc2C=Cc2ccccc21` [Protriptyline hydrochloride] the value was 0.846; for `CCOC(=O)C1=C[C@@H](OC(CC)CC)[C@H](NC(C)=O)[C@@H](N)C1`, 1.12; for `C[C@]12CCC(=O)C=C1CC[C@@H]1[C@@H]2[C@@H](O)C[C@@]2(C)[C@H]1CC[C@]2(O)C(=O)CO`, 0.862.
Regarding `C[C@]12CCC(=O)C=C1CC[C@@H]1[C@@H]2[C@@H](O)C[C@@]2(C)[C@H]1CC[C@]2(O)C(=O)CO` [Hydrocortisone], the normalized bacterial growth stood at 0.492.
The figure for `N=C(N)NC(=N)Nc1ccccc1` is 1.06.
Regarding `COc1cccc2c1[C@@H]1CN(CCCCn3c(=O)[nH]c4c(sc5ncc(-c6ccccc6)nc54)c3=O)C[C@@H]1CO2` [Fiduxosin hydrochloride], the normalized bacterial growth was 1.44.
For `CN[C@@H]1[C@H](O[C@H]2[C@H](O[C@H]3[C@H](O)[C@@H](O)[C@H](N=C(N)N)[C@@H](O)[C@@H]3N=C(N)N)O[C@@H](C)[C@]2(O)C=O)O[C@@H](CO)[C@H](O)[C@H]1O` the value was 0.941; for `CN[C@@H]1[C@H](O[C@H]2[C@H](O[C@H]3[C@H](O)[C@@H](O)[C@H](N=C(N)N)[C@@H](O)[C@@H]3N=C(N)N)O[C@@H](C)[C@]2(O)C=O)O[C@@H](CO)[C@H](O)[C@H]1O` [Streptomycin sulfate], 1.02.
In turn, `C[C@H](N)CO` returned a normalized bacterial growth of 1.28.
In turn, `COc1cc(-c2oc3cc(O)ccc3c(=O)c2O)ccc1O` registered a normalized bacterial growth of 0.425.
For `OCCOCCN1CCN(C2=Nc3ccccc3Sc3ccccc32)CC1` the value was 1.15; for `Cc1cc(O)c(C)c(O)c1C(=O)O`, 0.8; for `COc1cccc2c1C(=O)c1c(O)c3c(c(O)c1C2=O)C[C@@](O)(C(=O)CO)C[C@@H]3O[C@H]1C[C@H](N)[C@H](O)[C@H](C)O1` [Doxorubicin hydrochloride], 0.965.
The figure for `COc1cccc2c1C(=O)c1c(O)c3c(c(O)c1C2=O)C[C@@](O)(C(=O)CO)C[C@@H]3O[C@H]1C[C@H](N)[C@H](O)[C@H](C)O1` is 0.853 ± 0.079; for `Cn1cnc2c(NCc3ccccc3)nc(NCCO)nc21` [Olomoucine] it is 1.18.
For `CC1(C)S[C@@H]2[C@H](NC(=O)[C@H](N)c3ccc(O)cc3)C(=O)N2[C@H]1C(=O)O` [Amoxicillin] the value was 1.12.
Compound `CC1(C)S[C@@H]2[C@H](NC(=O)[C@H](N)c3ccc(O)cc3)C(=O)N2[C@H]1C(=O)O` returned a normalized bacterial growth of 1.08.
